Measured values published in PMC5854669, “Zinc knuckle of TAF1 is a DNA binding module critical for TFIID promoter occupancy”.

Molecular target: T1, TAF1 ZnC charge mutant (ZnC_RK) R1295A,K1298A (Homo sapiens) (UniProt P21675)
T1 sequence (looked up): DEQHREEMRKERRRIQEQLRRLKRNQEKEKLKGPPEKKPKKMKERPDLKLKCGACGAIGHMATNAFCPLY
Experiment: BLI
Details: BLI: 10 mM HEPES pH 7.9, 5 mM MgCl2, 100 mM NaCl, 10% glycerol, 0.1% ovalbumin, 0.2 mM dI:dC, 30 °C; recombinant protein; residues 1234-1303; protein details: His-GB1; label: 5'-biotin (BLI), 5'-32P (EMSA)

GTCCTCAGTCGCGATCGAACACTCGAGCCGAGCAGACGTGCCTA (double strand) [IMD (Inr, MTE, DPE of super core promoter)]
binding result: binds more weakly

Weaker means in comparison with the reference protein, sequence or condition of that experiment. Protein sequences can lack the tags named with them.
